PubChem BioAssay AID504793 | Drosophila RNAi Screening Center | 2011
Screen: 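Knock-downs allowing continued mitosis even though DNA is damaged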 (primary screen). Cell system: Drosophila S2R+ cells. Reagent: long dsRNA against Drosophila genes, about 0.25 µg dsRNA per well. Timing: 4 days of dsRNA, then 4 hours of drug before read-out. Challenge: doxorubicin 0.5 µM for 4 hours to cause double-strand breaks, in cells also given a low, harmless dose of dsRNA against nbs to sensitise the assay. Read-out: 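Mitotic index as the number of phospho-histone H3-positive cells in each well following doxorubicin, given as raw counts without normalisation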. Scale: mitotic cells: higher = more cells in mitosis, weaker G2 arrest. Call rule: 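Genes are called active only when high mitotic counts were reproduced with independent dsRNAs and mitosis was checked for delay without damage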. Calls: active = confirmed in follow-up tests; inactive = not confirmed.
The screen tested about 23,000 reagents; this is a random part of those that have a named target and a result. Over the whole deposit, 62 (0.27%) were called active. 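Calls come from follow-up tests whose scores are not deposited, so confirmed genes may have low counts here; counts are not normalised per plate.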 Raw values are not corrected between plates. A plus sign joins genes that one reagent is predicted to hit. Reagent sequences are not shown.

gene knocked down | dsRNA | mitotic cells, replicate 1 | mitotic cells, replicate 2 | activity call
CG9451 (GeneID 40118) | DRSC11074 | 1 | – | inactive
CG9451 (GeneID 40118) | DRSC26098 | 6 | – | inactive
Vha16-2 (GeneID 39282) | DRSC10873 | 3 | – | inactive
Vha16-2 (GeneID 39282) | DRSC25504 | 9 | – | inactive
CG30286 (GeneID 246529) | DRSC04070 | 8 | – | inactive
CG9795 (GeneID 40545) | DRSC12336 | 2 | – | inactive
CG9795 (GeneID 40545) | DRSC24244 | 6 | – | inactive
CG8641 (GeneID 38771) | DRSC11028 | – | – | inactive
CG14301 (GeneID 42235) | DRSC14780 | 17 | – | inactive
CG12075 (GeneID 31815) | DRSC17801 | 4 | – | inactive
CG12075 (GeneID 31815) | DRSC25257 | 14 | – | inactive
Rab3 (GeneID 36127) | DRSC07523 | 11 | – | inactive
Polr2L (GeneID 42942) | DRSC14630 | 15 | – | inactive
PolrMT (GeneID 33285) | DRSC00660 | 4 | – | inactive
Mlp60A (GeneID 37853) | DRSC04623 | 13 | – | inactive
Mlp60A (GeneID 37853) | DRSC22233 | 17 | – | inactive
Mlp60A (GeneID 37853) | DRSC22481 | 14 | – | inactive
Ugt303B3 (GeneID 42774) | DRSC14199 | 18 | – | inactive
Ugt303B3 (GeneID 42774) | DRSC26386 | 5 | – | inactive
CanB2 (GeneID 46456) | DRSC07355 | 5 | – | inactive
CanB2 (GeneID 46456) | DRSC27440 | 3 | – | inactive
CG31948 (GeneID 326178) | DRSC00740 | 2 | – | inactive
CG1288 (GeneID 40865) | DRSC12538 | 6 | – | inactive
CG1288 (GeneID 40865) | DRSC25396 | 2 | – | inactive
Panx (GeneID 37434) | DRSC04563 | 5 | – | inactive
CG6495 (GeneID 34486) | DRSC01993 | 7 | – | inactive
CG6495 (GeneID 34486) | DRSC29128 | 1 | – | inactive
Wee1 (GeneID 33965) | DRSC03635 | 7 | – | inactive
Wee1 (GeneID 33965) | DRSC23318 | 13 | – | inactive
Picot (GeneID 36865) | DRSC07508 | 4 | – | inactive
Picot (GeneID 36865) | DRSC24256 | 6 | – | inactive
mRpS34 (GeneID 39809) | DRSC09918 | 3 | – | inactive
mRpS34 (GeneID 39809) | DRSC29248 | 9 | – | inactive
Tengl2 (GeneID 318044) | DRSC21968 | 6 | – | inactive
Tengl2 (GeneID 318044) | DRSC29284 | 5 | – | inactive
Arts + Apl | DRSC10349 | 3 | – | inactive
CG42496 + Ppcdc | DRSC03886 | 10 | 10 | inactive
cas (GeneID 44018) | DRSC12373 | 1 | – | inactive
cas (GeneID 44018) | DRSC24858 | 5 | – | inactive
Su(dx) (GeneID 33379) | DRSC00791 | 3 | – | inactive
Su(dx) (GeneID 33379) | DRSC26192 | 2 | – | inactive
Peritrophin-15b (GeneID 50432) | DRSC02266 | 5 | – | inactive
CG30036 (GeneID 246408) | DRSC21334 | 25 | – | inactive
Pdp1 (GeneID 45588) | DRSC08896 | 6 | – | inactive
Pdp1 (GeneID 45588) | DRSC08897 | 3 | – | inactive
Pdp1 (GeneID 45588) | DRSC11251 | 6 | – | inactive
Pdp1 (GeneID 45588) | DRSC22973 | 13 | – | inactive
DCP1 (GeneID 37790) | DRSC04091 | 4 | – | inactive
DCP1 (GeneID 37790) | DRSC29844 | 1 | – | inactive
NijC (GeneID 41568) | DRSC14851 | 9 | – | inactive
NijC (GeneID 41568) | DRSC29054 | 7 | – | inactive
CG13725 (GeneID 39928) | DRSC10054 | 10 | – | inactive
Dna2 (GeneID 31934) | DRSC18254 | 12 | – | inactive
noc (GeneID 34847) | DRSC24997 | 10 | – | inactive
CG11836 (GeneID 43007) | DRSC14396 | 5 | – | inactive
CG15117 (GeneID 37197) | DRSC06539 | 14 | – | inactive
CG15117 (GeneID 37197) | DRSC25471 | 11 | – | inactive
ValRS (GeneID 45783) | DRSC06864 | 8 | – | inactive
CG13313 (GeneID 39022) | DRSC09984 | 7 | – | inactive
CG13313 (GeneID 39022) | DRSC28463 | 1 | – | inactive
CG32202 (GeneID 326199) | DRSC09989 | 6 | – | inactive
Ccdc85 (GeneID 33509) | DRSC23173 | 2 | – | inactive
sals (GeneID 41377) | DRSC14925 | 6 | – | inactive
sals (GeneID 41377) | DRSC16113 | 1 | – | inactive
sals (GeneID 41377) | DRSC28473 | 8 | – | inactive
Fer2LCH (GeneID 44965) | DRSC16672 | 10 | – | inactive
Fer2LCH (GeneID 44965) | DRSC29169 | 4 | – | inactive
CG5290 (GeneID 39998) | DRSC10501 | 7 | – | inactive
CG5290 (GeneID 39998) | DRSC30041 | 5 | – | inactive
aay (GeneID 39085) | DRSC11320 | 6 | – | inactive
Hacd2 (GeneID 34762) | DRSC03181 | 8 | – | inactive
Ulp1 (GeneID 32910) | DRSC19339 | 3 | – | inactive
swa (GeneID 31580) | DRSC18842 | 5 | – | inactive
swa (GeneID 31580) | DRSC25555 | 5 | – | inactive
CG11779 (GeneID 42298) | DRSC14384 | 8 | – | inactive
Las (GeneID 40259) | DRSC11772 | 11 | – | inactive
Las (GeneID 40259) | DRSC26539 | 12 | – | inactive
cv (GeneID 44510) | DRSC17833 | 11 | – | inactive
Sec5 (GeneID 33563) | DRSC00714 | 6 | – | inactive
Gyc89Db (GeneID 42002) | DRSC15009 | 6 | – | inactive
Pat1 (GeneID 31593) | DRSC17750 | 2 | – | inactive
Pat1 (GeneID 31593) | DRSC27265 | 6 | – | inactive
TM4SF (GeneID 37786) | DRSC04661 | 6 | – | inactive
CG4267 (GeneID 33405) | DRSC00647 | 7 | – | inactive
CG4267 (GeneID 33405) | DRSC28673 | 6 | – | inactive
plum (GeneID 43197) | DRSC16054 | 5 | – | inactive
gcl (GeneID 35864) | DRSC07623 | 2 | – | inactive
gcl (GeneID 35864) | DRSC27995 | 8 | – | inactive
Traf6 (GeneID 31746) | DRSC18725 | 15 | – | inactive
CG31974 (GeneID 33174) | DRSC00522 | 9 | – | inactive
GstE10 (GeneID 37105) | DRSC06671 | 6 | – | inactive
GstE10 (GeneID 37105) | DRSC28568 | 11 | – | inactive
CG34384 (GeneID 5740362) | DRSC14855 | 3 | – | inactive
CG34384 (GeneID 5740362) | DRSC15444 | 7 | – | inactive
CG34384 (GeneID 5740362) | DRSC16575 | 4 | – | inactive
TTLL4A (GeneID 47729) | DRSC02528 | 6 | – | inactive
TTLL4A (GeneID 47729) | DRSC28124 | 9 | – | inactive
CG14187 (GeneID 40199) | DRSC10186 | 5 | – | inactive
CG14187 (GeneID 40199) | DRSC26776 | 8 | – | inactive
Nf1 (GeneID 43149) | DRSC16758 | 8 | – | inactive
Nf1 (GeneID 43149) | DRSC29934 | 14 | – | inactive
CG9406 (GeneID 37405) | DRSC04552 | 12 | – | inactive
CG13716 (GeneID 38567) | DRSC08325 | 14 | – | inactive
CG13716 (GeneID 38567) | DRSC22815 | 9 | – | inactive
glec (GeneID 42571) | DRSC16958 | 9 | – | inactive
glec (GeneID 42571) | DRSC25314 | 7 | – | inactive
Cyp4s3 (GeneID 32444) | DRSC20241 | 12 | – | inactive
Cyp4s3 (GeneID 32444) | DRSC22340 | 5 | – | inactive
Cyp4s3 (GeneID 32444) | DRSC24027 | 7 | – | inactive
mms4 (GeneID 36136) | DRSC06249 | 13 | – | inactive
CG2698 (GeneID 40945) | DRSC15447 | 2 | – | inactive
CG32036 (GeneID 39105) | DRSC10362 | 11 | – | inactive
CG32036 (GeneID 39105) | DRSC28171 | 6 | – | inactive
Dbx (GeneID 38254) | DRSC08271 | 5 | – | inactive
Dbx (GeneID 38254) | DRSC08394 | 5 | – | inactive
Dbx (GeneID 38254) | DRSC25311 | 3 | – | inactive
Dbx (GeneID 38254) | DRSC29604 | 6 | – | inactive
cype (GeneID 46040) | DRSC02356 | 7 | – | inactive
Rlb1 (GeneID 41139) | DRSC16826 | 6 | – | inactive
Rlb1 (GeneID 41139) | DRSC27846 | 6 | – | inactive
CycD (GeneID 32551) | DRSC20233 | 8 | – | inactive
CycD (GeneID 32551) | DRSC25031 | 1 | – | inactive
Ras85D (GeneID 41140) | DRSC16814 | 5 | – | inactive
Ras85D (GeneID 41140) | DRSC39132 | 8 | – | inactive
CG31769 (GeneID 318934) | DRSC01361 | 7 | – | inactive
DAT (GeneID 36849) | DRSC07394 | 4 | – | inactive
app (GeneID 39399) | DRSC09159 | 17 | – | inactive
app (GeneID 39399) | DRSC10246 | 9 | – | inactive
app (GeneID 39399) | DRSC10526 | 1 | – | inactive
app (GeneID 39399) | DRSC25682 | 5 | – | inactive
Oatp58Db (GeneID 37544) | DRSC04364 | 5 | – | inactive
Oatp58Db (GeneID 37544) | DRSC24248 | 4 | – | inactive
CG30378 (GeneID 246577) | DRSC05071 | 5 | – | inactive
Dll (GeneID 37973) | DRSC04610 | 5 | – | inactive
Dll (GeneID 37973) | DRSC27225 | 8 | – | inactive
CG18581 (GeneID 39633) | DRSC10324 | 2 | – | inactive
Cap-D3 + tomb | DRSC02347 | 8 | – | inactive
pea (GeneID 36561) | DRSC07120 | 6 | – | inactive
pea (GeneID 36561) | DRSC29708 | 2 | – | inactive
Gr64c (GeneID 117479) | DRSC08445 | 8 | – | inactive
Gr64c (GeneID 117479) | DRSC27568 | 4 | – | inactive
